Paper PMC9599641, “TNP Analogues Inhibit the Virulence Promoting IP3-4 Kinase Arg1 in the Fungal Pathogen Cryptococcus neoformans” (Biomolecules, 2022)
Results are given in words; binding and its absence hold for the method and conditions named.

Tests used:
[1] = molecular target: IP3-4 kinase from Cryptococcus neoformans (CnArg1) (Cryptococcus neoformans var grubii (strain H99)) (UniProt J9W3G0); experiment: SEC-MALS; SEC-MALLS (Wyatt Technology) of the purified, GST-cleaved recombinant enzyme to determine its multimerization state; buffer and concentration not stated; both purified
[2] = molecular target: IP3-4 kinase from Candida albicans (CaIpk2) (Candida albicans (strain SC5314)) (UniProt Q59YE9); experiment: as above

Binder | binding [1] | binding [2]
IP3-4 kinase from Cryptococcus neoformans (CnArg1) (enzyme, UniProt J9W3G0 1-435) MDLPLTLDDHIPFSHQVAGHPGVMSDPSGSLVIKPALPREIAFYQLLSNSDPEDIVWPLRKFVPKNYGTLRLEGRIGAAGGVETDLDVQDEVPESVVLANLAYAYTRPNIMDVKLGTVLYAPYATDEKRQRMDRQARETTTYETGIRLTGCQTWHAPTQSYISTPKSFGKSITPPQLSQGMVRFFPLPTDSIPSLVTLPSPPPTAVEVVSTVAASQLPIPAQTSCASVIQSSTSIPIPPSTPISPDPAAIASIFPASTDPENSPTYENHSIPPPTLARLLTLLLQKLDQLTAVLSTLEMRFVGASLLVVYEGDPIRLEAALDREEAKVQEESEEKEKRDGERSMFSDDGSIDFSDSDADSDEDDEEEYDSDDELDGKKKDERRASKCPALTLKLIDFAHTWLAQGEGPDEGVLKGLKTFRSLVEGRLEEVERGCV | no binding | –
IP3-4 kinase from Candida albicans (CaIpk2) (enzyme, UniProt Q59YE9 1-350) MIPTLNSLTPSKHQAAGHDGCLATDSLFIKLTVQQEIDFYTQVQSHDQSVQDAPLGSQLSHWMPTFMGTLTQGDVSKTQTAGSDQSSSAEGQTDKQYIVLSNSYHGFTHPSILDIKLGAKLTDDEVTAPEKIARLQKVSDSTTSGSLNFRICGMKVYNGKSDTKPANELYENMNDSSVSVNINDADDHKYLEFNKFYGRSLSKDNIKEGLELYFNNHLPKAIVKRLLVVFHKRLQLLYNCLLDYEVRIFSGSLLFIYESDLTKWENVTEDNYDTYDSLVREIVDDEDEDDEEFEEDSKKDKTQPLTPLSSLNFIDFAHAKFVEGQGHDENIVQGIENLIDIFNALIAKYD | – | no binding
